# Assay results as given in patent US20220153786A1, “PEPTIDES FOR PREVENTING BIOFILM FORMATION” (priority 2019, published 2022).
# Tested on: S. epidermidis cultures
# Test: Confocal fluorescence microscopy (CFM) localisation of FITC-labelled peptide
# Format: cell-based, Staphylococcus epidermidis
# Settings: 10 μM FITC-labelled peptide, 1, 4 or 24 h
substance,measurement,value
"KRFKKFFMKLK-FITC (FITC label) [Pseudonajide, FITC-labelled antimicrobial peptide, reference compound]",localisation of peptide (CFM),green fluorescence in the cells but not in the matrix
